These are yes or no findings as the source states them, for the method shown. In cells and extracts the contact can be indirect. These calls come from enrichment with a bait or labelling near it, and not all partners need be listed.
B1: DAZAP1 (protein, UniProt Q96EP5 1-407)
chain: MNNSGADEIGKLFVGGLDWSTTQETLRSYFSQYGEVVDCVIMKDKTTNQSRGFGFVKFKDPNCVGTVLASRPHTLDGRNIDPKPCTPRGMQPERTRPKEGWQKGPRSDNSKSNKIFVGGIPHNCGETELREYFKKFGVVTEVVMIYDAEKQRPRGFGFITFEDEQSVDQAVNMHFHDIMGKKVEVKRAEPRDSKSQAPGQPGASQWGSRVVPNAANGWAGQPPPTWQQGYGPQGMWVPAGQAIGGYGPPPAGRGAPPPPPPFTSYIVSTPPGGFPPPQGFPQGYGAPPQFSFGYGPPPPPPDQFAPPGVPPPPATPGAAPLAFPPPPSQAAPDMSKPPTAQPDFPYGQYAGYGQDLSGFGQGFSDPSQQPPSYGGPSVPGSGGPPAGGSGFGRGQNHNVQGFHPYRR
B2: CPSF7 (protein, UniProt Q8N684 1-471)
chain: MSEGVDLIDIYADEEFNQDPEFNNTDQIDLYDDVLTATSQPSDDRSSSTEPPPPVRQEPSPKPNNKTPAILYTYSGLRNRRAAVYVGSFSWWTTDQQLIQVIRSIGVYDVVELKFAENRANGQSKGYAEVVVASENSVHKLLELLPGKVLNGEKVDVRPATRQNLSQFEAQARKRECVRVPRGGIPPRAHSRDSSDSADGRATPSENLVPSSARVDKPPSVLPYFNRPPSALPLMGLPPPPIPPPPPLSSSFGVPPPPPGIHYQHLMPPPPRLPPHLAVPPPGAIPPALHLNPAFFPPPNATVGPPPDTYMKASAPYNHHGSRDSGPPPSTVSEAEFEDIMKRNRAISSSAISKAVSGASAGDYSDAIETLLTAIAVIKQSRVANDERCRVLISSLKDCLHGIEAKSYSVGASGSSSRKRHRSRERSPSRSRESSRRHRDLLHNEDRHDDYFQERNREHERHRDRERDRHH
B3: CPSF1 (protein, UniProt Q10570 1-1443)
chain: MYAVYKQAHPPTGLEFSMYCNFFNNSERNLVVAGTSQLYVYRLNRDAEALTKNDRSTEGKAHREKLELAASFSFFGNVMSMASVQLAGAKRDALLLSFKDAKLSVVEYDPGTHDLKTLSLHYFEEPELRDGFVQNVHTPRVRVDPDGRCAAMLVYGTRLVVLPFRRESLAEEHEGLVGEGQRSSFLPSYIIDVRALDEKLLNIIDLQFLHGYYEPTLLILFEPNQTWPGRVAVRQDTCSIVAISLNITQKVHPVIWSLTSLPFDCTQALAVPKPIGGVVVFAVNSLLYLNQSVPPYGVALNSLTTGTTAFPLRTQEGVRITLDCAQATFISYDKMVISLKGGEIYVLTLITDGMRSVRAFHFDKAAASVLTTSMVTMEPGYLFLGSRLGNSLLLKYTEKLQEPPASAVREAADKEEPPSKKKRVDATAGWSAAGKSVPQDEVDEIEVYGSEAQSGTQLATYSFEVCDSILNIGPCANAAVGEPAFLSEEFQNSPEPDLEIVVCSGHGKNGALSVLQKSIRPQVVTTFELPGCYDMWTVIAPVRKEEEDNPKGEGTEQEPSTTPEADDDGRRHGFLILSREDSTMILQTGQEIMELDTSGFATQGPTVFAGNIGDNRYIVQVSPLGIRLLEGVNQLHFIPVDLGAPIVQCAVADPYVVIMSAEGHVTMFLLKSDSYGGRHHRLALHKPPLHHQSKVITLCLYRDLSGMFTTESRLGGARDELGGRSGPEAEGLGSETSPTVDDEEEMLYGDSGSLFSPSKEEARRSSQPPADRDPAPFRAEPTHWCLLVRENGTMEIYQLPDWRLVFLVKNFPVGQRVLVDSSFGQPTTQGEARREEATRQGELPLVKEVLLVALGSRQSRPYLLVHVDQELLIYEAFPHDSQLGQGNLKVRFKKVPHNINFREKKPKPSKKKAEGGGAEEGAGARGRVARFRYFEDIYGYSGVFICGPSPHWLLVTGRGALRLHPMAIDGPVDSFAPFHNVNCPRGFLYFNRQGELRISVLPAYLSYDAPWPVRKIPLRCTAHYVAYHVESKVYAVATSTNTPCARIPRMTGEEKEFETIERDERYIHPQQEAFSIQLISPVSWEAIPNARIELQEWEHVTCMKTVSLRSEETVSGLKGYVAAGTCLMQGEEVTCRGRILIMDVIEVVPEPGQPLTKNKFKVLYEKEQKGPVTALCHCNGHLVSAIGQKIFLWSLRASELTGMAFIDTQLYIHQMISVKNFILAADVMKSISLLRYQEESKTLSLVSRDAKPLEVYSVDFMVDNAQLGFLVSDRDRNLMVYMYLPEAKESFGGMRLLRRADFHVGAHVNTFWRTPCRGATEGLSKKSVVWENKHITWFATLDGGIGLLLPMQEKTYRRLLMLQNALTTMLPHHAGLNPRAFRMLHVDRRTLQNAVRNVLDGELLNRYLYLSTMERSELAKKIGTTPDIILDDLLETDRVTAHF
B4: NUP107 (protein, UniProt P57740 1-925)
chain: MDRSGFGEISSPVIREAEVTRTARKQSAQKRVLLQASQDENFGNTTPRNQVIPRTPSSFRQPFTPTSRSLLRQPDISCILGTGGKSPRLTQSSGFFGNLSMVTNLDDSNWAAAFSSQRSGLFTNTEPHSITEDVTISAVMLREDDPGEAASMSMFSDFLQSFLKHSSSTVFDLVEEYENICGSQVNILSKIVSRATPGLQKFSKTASMLWLLQQEMVTWRLLASLYRDRIQSALEEESVFAVTAVNASEKTVVEALFQRDSLVRQSQLVVDWLESIAKDEIGEFSDNIEFYAKSVYWENTLHTLKQRQLTSYVGSVRPLVTELDPDAPIRQKMPLDDLDREDEVRLLKYLFTLIRAGMTEEAQRLCKRCGQAWRAATLEGWKLYHDPNVNGGTELEPVEGNPYRRIWKISCWRMAEDELFNRYERAIYAALSGNLKQLLPVCDTWEDTVWAYFRVMVDSLVEQEIQTSVATLDETEELPREYLGANWTLEKVFEELQATDKKRVLEENQEHYHIVQKFLILGDIDGLMDEFSKWLSKSRNNLPGHLLRFMTHLILFFRTLGLQTKEEVSIEVLKTYIQLLIREKHTNLIAFYTCHLPQDLAVAQYALFLESVTEFEQRHHCLELAKEADLDVATITKTVVENIRKKDNGEFSHHDLAPALDTGTTEEDRLKIDVIDWLVFDPAQRAEALKQGNAIMRKFLASKKHEAAKEVFVKIPQDSIAEIYNQCEEQGMESPLPAEDDNAIREHLCIRAYLEAHETFNEWFKHMNSVPQKPALIPQPTFTEKVAHEHKEKKYEMDFGIWKGHLDALTADVKEKMYNVLLFVDGGWMVDVREDAKEDHERTHQMVLLRKLCLPMLCFLLHTILHSTGQYQECLQLADMVSSERHKLYLVFSKEELRKLLQKLRESSLMLLDQGLDPLGYEIQL
B5: NUP85 (protein, UniProt Q9BW27 1-656)
chain: MEELDGEPTVTLIPGVNSKKNQMYFDWGPGEMLVCETSFNKKEKSEMVPSCPFIYIIRKDVDVYSQILRKLFNESHGIFLGLQRIDEELTGKSRKSQLVRVSKNYRSVIRACMEEMHQVAIAAKDPANGRQFSSQVSILSAMELIWNLCEILFIEVAPAGPLLLHLLDWVRLHVCEVDSLSADVLGSENPSKHDSFWNLVTILVLQGRLDEARQMLSKEADASPASAGICRIMGDLMRTMPILSPGNTQTLTELELKWQHWHEECERYLQDSTFATSPHLESLLKIMLGDEAALLEQKELLSNWYHFLVTRLLYSNPTVKPIDLHYYAQSSLDLFLGGESSPEPLDNILLAAFEFDIHQVIKECSIALSNWWFVAHLTDLLDHCKLLQSHNLYFGSNMREFLLLEYASGLFAHPSLWQLGVDYFDYCPELGRVSLELHIERIPLNTEQKALKVLRICEQRQMTEQVRSICKILAMKAVRNNRLGSALSWSIRAKDAAFATLVSDRFLRDYCERGCFSDLDLIDNLGPAMMLSDRLTFLGKYREFHRMYGEKRFADAASLLLSLMTSRIAPRSFWMTLLTDALPLLEQKQVIFSAEQTYELMRCLEDLTSRRPVHGESDTEQLQDDDIETTKVEMLRLSLARNLARAIIREGSLEGS
B6: NUPL2 (protein, UniProt O15504 1-423)
chain: MAICQFFLQGRCRFGDRCWNEHPGARGAGGGRQQPQQQPSGNNRRGWNTTSQRYSNVIQPSSFSKSTPWGGSRDQEKPYFSSFDSGASTNRKEGFGLSENPFASLSPDEQKDEKKLLEGIVKDMEVWESSGQWMFSVYSPVKKKPNISGFTDISPEELRLEYHNFLTSNNLQSYLNSVQRLINQWRNRVNELKSLNISTKVALLSDVKDGVNQAAPAFGFGSSQAATFMSPGFPVNNSSSDNAQNFSFKTNSGFAAASSGSPAGFGSSPAFGAAASTSSGISTSAPAFGFGKPEVTSAASFSFKSPAASSFGSPGFSGLPASLATGPVRAPVAPAFGGGSSVAGFGSPGSHSHTAFSKPSSDTFGNSSISTSLSASSSIIATDNVLFTPRDKLTVEELEQFQSKKFTLGKIPLKPPPLELLNV

Protein sequences, listed by entry. Tags and fused reporters are not part of them. Lines headed by an entry give the natural chain unless they say otherwise; changes in a name come on top.
UniProt P35637: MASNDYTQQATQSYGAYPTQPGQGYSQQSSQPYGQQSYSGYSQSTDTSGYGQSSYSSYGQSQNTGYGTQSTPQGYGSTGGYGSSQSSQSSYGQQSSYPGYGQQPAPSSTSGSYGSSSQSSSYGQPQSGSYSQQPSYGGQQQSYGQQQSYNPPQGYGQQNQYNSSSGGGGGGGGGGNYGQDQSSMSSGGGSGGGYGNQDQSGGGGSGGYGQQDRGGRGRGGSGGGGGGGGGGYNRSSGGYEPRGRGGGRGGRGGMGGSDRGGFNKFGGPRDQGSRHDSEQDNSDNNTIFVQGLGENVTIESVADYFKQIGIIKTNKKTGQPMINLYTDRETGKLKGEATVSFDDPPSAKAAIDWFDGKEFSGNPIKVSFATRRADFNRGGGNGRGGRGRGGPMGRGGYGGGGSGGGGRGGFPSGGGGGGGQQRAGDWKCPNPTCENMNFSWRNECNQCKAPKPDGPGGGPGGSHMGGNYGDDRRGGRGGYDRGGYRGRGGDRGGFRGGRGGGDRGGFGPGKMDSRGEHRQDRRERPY
UniProt Q99613: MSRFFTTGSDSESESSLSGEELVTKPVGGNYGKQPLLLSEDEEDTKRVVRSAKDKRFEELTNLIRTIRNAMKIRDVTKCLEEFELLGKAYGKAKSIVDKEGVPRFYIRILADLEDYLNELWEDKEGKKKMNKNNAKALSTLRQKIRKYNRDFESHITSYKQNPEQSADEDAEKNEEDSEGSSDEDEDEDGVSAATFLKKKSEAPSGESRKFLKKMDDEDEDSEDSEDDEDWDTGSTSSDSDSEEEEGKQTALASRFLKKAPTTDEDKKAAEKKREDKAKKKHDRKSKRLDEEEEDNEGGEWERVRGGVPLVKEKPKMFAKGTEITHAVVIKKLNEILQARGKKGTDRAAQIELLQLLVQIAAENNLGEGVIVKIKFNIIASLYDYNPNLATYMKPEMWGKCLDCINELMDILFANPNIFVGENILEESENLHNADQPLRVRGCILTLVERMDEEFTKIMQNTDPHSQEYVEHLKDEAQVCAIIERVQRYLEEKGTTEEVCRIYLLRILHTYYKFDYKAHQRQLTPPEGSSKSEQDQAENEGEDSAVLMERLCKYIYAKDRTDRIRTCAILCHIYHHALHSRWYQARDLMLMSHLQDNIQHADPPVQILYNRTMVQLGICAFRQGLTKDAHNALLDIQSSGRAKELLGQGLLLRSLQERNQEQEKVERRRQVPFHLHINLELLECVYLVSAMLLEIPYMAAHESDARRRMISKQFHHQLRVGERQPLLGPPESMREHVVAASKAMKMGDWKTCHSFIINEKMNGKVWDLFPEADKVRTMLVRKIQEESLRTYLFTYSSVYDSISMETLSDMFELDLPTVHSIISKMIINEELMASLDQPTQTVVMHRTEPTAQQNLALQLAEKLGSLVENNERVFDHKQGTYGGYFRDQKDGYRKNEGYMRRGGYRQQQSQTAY
UniProt O75821: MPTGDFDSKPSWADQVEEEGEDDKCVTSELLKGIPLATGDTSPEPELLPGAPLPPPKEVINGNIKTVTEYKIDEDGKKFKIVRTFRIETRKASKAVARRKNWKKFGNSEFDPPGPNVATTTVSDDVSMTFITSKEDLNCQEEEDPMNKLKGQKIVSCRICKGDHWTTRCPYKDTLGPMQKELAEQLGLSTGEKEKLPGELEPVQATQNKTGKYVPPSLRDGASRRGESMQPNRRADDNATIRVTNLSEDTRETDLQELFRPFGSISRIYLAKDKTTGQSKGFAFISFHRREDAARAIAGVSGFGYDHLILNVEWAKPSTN
UniProt O15372: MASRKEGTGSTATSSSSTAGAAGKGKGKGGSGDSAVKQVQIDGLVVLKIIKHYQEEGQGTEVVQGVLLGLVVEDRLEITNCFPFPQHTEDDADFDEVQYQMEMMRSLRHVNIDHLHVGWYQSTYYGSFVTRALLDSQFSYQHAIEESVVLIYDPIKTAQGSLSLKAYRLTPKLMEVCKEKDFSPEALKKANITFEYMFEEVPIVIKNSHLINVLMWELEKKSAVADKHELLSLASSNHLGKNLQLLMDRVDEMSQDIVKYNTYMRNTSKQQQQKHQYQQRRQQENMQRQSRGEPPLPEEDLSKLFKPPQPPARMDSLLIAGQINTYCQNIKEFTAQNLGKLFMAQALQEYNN
UniProt Q13347: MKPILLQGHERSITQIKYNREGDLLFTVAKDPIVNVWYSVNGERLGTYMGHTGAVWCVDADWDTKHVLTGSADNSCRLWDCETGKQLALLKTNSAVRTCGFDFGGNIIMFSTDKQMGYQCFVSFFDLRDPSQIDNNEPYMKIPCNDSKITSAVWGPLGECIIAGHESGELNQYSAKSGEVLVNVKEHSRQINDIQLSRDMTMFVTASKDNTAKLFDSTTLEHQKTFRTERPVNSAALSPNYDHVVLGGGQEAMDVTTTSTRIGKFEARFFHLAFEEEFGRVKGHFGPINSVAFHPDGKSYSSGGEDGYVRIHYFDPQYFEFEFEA
UniProt Q9UBQ5: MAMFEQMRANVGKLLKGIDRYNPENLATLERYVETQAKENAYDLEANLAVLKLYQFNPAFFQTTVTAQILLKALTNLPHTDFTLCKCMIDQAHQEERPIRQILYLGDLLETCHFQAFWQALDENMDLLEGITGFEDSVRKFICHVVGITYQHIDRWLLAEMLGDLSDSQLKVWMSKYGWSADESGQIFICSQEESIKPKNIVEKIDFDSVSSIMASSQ
UniProt Q9Y262: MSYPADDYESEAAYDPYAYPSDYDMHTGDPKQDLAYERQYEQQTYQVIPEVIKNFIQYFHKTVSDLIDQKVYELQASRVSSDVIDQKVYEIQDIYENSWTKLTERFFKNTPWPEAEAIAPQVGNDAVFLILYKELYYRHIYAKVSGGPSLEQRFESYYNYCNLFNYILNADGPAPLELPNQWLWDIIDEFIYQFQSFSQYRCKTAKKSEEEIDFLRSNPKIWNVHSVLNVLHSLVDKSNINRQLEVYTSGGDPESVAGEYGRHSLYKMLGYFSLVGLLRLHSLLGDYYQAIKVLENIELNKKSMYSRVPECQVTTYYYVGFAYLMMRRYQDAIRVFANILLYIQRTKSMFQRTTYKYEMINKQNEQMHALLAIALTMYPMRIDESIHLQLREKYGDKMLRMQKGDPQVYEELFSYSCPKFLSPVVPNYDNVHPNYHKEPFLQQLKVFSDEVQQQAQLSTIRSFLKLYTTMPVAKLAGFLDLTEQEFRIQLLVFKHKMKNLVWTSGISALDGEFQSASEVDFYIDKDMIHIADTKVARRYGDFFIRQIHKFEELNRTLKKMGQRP
UniProt Q9NQT5: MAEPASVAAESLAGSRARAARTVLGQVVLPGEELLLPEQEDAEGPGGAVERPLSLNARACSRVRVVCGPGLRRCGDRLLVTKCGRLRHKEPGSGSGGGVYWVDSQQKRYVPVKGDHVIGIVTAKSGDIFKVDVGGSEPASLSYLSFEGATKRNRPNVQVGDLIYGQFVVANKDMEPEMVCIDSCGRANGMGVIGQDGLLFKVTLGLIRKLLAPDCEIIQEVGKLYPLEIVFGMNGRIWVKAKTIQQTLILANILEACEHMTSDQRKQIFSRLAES
UniProt Q09161: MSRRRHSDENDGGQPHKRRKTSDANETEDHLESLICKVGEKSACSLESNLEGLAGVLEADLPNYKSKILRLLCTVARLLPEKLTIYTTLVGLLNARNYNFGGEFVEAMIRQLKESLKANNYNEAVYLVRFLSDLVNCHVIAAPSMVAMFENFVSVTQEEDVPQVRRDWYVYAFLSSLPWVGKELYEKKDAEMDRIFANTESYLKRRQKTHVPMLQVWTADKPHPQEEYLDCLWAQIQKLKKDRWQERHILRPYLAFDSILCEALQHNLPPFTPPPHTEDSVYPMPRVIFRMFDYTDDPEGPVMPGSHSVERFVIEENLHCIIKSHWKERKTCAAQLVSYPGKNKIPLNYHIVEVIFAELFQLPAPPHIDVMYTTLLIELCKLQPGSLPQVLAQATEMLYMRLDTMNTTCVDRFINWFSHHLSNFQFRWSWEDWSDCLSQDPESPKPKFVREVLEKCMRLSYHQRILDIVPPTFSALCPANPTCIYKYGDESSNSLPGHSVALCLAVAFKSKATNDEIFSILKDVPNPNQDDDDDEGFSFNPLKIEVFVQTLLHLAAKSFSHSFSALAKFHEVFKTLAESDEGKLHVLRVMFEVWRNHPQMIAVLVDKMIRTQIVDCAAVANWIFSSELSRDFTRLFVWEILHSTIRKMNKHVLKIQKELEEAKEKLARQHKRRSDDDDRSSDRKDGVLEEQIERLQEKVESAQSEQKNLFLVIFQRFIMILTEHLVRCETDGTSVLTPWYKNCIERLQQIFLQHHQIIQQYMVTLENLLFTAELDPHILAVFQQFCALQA
UniProt Q13242: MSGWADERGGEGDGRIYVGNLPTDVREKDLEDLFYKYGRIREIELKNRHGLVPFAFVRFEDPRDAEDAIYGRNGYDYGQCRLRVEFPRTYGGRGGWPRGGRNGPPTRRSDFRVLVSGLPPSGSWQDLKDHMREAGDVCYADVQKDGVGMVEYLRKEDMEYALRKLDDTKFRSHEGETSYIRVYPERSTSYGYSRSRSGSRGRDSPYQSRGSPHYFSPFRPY
UniProt Q13283: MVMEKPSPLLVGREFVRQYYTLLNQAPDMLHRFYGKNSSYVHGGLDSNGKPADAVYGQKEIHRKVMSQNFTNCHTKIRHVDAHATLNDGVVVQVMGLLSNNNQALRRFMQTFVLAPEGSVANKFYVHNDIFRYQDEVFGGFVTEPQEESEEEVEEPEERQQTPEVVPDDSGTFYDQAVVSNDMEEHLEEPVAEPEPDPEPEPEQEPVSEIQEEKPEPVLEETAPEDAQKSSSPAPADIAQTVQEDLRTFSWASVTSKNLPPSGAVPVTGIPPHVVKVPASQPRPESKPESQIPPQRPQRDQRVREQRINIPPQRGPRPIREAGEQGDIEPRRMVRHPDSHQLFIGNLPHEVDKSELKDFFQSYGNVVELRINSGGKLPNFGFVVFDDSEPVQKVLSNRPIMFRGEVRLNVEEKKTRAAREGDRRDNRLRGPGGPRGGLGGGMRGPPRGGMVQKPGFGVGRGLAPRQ
UniProt P28066: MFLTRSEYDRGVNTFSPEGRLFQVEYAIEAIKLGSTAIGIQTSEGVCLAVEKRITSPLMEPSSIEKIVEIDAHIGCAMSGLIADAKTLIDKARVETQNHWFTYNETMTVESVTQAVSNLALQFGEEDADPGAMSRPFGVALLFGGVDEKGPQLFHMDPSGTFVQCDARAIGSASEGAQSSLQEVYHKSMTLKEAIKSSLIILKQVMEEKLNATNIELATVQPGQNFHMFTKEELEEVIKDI
UniProt O14818: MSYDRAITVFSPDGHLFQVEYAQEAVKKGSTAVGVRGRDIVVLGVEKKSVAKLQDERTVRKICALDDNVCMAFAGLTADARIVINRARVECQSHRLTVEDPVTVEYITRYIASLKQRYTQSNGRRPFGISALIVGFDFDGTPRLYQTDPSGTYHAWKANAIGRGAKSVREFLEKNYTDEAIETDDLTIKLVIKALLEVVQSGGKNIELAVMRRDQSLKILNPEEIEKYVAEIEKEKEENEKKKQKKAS
UniProt P49721: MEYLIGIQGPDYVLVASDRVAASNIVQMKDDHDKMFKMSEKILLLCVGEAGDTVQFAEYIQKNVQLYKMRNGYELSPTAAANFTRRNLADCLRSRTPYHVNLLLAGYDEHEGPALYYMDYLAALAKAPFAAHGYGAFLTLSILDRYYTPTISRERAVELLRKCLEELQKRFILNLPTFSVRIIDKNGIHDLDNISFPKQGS
UniProt P28074: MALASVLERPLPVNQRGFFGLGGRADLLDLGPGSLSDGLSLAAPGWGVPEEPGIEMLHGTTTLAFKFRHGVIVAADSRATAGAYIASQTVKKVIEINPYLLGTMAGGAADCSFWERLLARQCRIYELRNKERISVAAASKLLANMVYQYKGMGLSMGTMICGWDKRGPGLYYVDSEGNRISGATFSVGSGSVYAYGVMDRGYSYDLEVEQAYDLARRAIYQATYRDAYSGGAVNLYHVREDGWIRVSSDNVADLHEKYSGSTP
UniProt P17980: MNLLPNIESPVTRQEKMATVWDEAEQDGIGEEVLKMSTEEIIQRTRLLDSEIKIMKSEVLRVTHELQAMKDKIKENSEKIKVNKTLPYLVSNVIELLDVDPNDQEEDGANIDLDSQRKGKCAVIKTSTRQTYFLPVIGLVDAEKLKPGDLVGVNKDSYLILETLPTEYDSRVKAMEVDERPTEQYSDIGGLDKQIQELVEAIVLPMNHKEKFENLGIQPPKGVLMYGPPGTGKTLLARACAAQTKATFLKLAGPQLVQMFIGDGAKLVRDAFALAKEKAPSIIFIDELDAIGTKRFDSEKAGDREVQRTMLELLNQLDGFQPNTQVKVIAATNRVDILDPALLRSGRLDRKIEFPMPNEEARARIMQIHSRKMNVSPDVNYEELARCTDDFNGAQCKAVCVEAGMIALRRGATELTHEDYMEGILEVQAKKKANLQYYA

target: FUS(R522G)-GFP (human) (UniProt P35637); assay: affinity purification with mass spectrometry

binding, binds:
CPSF6 (from UniProt Q16630 1-551), EIF3C (from UniProt Q99613 1-913), EIF3G (from UniProt O75821 1-320), EIF3H (from UniProt O15372 1-352), EIF3I (from UniProt Q13347 1-325), EIF3K (from UniProt Q9UBQ5 1-218), EIF3L (from UniProt Q9Y262 1-564), EXOSC3 (from UniProt Q9NQT5 1-275), NCBP1 (from UniProt Q09161 1-790), SRSF9 (from UniProt Q13242 1-221), B1, B2, B3

target: G3BP1-GFP (UniProt Q13283); assay: affinity purification with mass spectrometry

binding, binds:
PSMA5 (from UniProt P28066 1-241), PSMA6 (from UniProt P60900 1-246), PSMA7 (from UniProt O14818 1-248), PSMB2 (from UniProt P49721 1-201), PSMB5 (from UniProt P28074), PSMC3 (from UniProt P17980 1-439), B4, B5, B6

From paper doi:10.1101/2021.03.02.433611
